Measurements taken from patent US4005217A, “Treatment of helminth infections with substituted phenyl-thiourea derivatives” (May & Baker Limited, priority 1970, dated 1977).
Counter-ions that a name gives are not always drawn. At least one compound was matched to its structure with a doubt left.

Key:
[1] = test system: Nippostrongylus brasiliensis; test: Test 2: activity against roundworms in rats, treatment 24 hours after infection, worm counts 6 days after dosing; assay type: in vivo
Procedure: Test 2 -- Rats were infected with 100 Nippostrongylus brasiliensis larvae each, by the subcutaneous route. After 24 hours the rats were randomised and allotted to groups of 5 animals each, ready for treatment. Doses of the test compound were then administered to each group by the oral, subcutaneous and intraperitoneal routes respectively, one group of 10 animals being left untreated as a control. All the rats were killed for post-mortem worm counts 6 days after dosing. The activities, expressed in terms of the percentage reductions in mean worm load of the treated groups or damage to the worms compared with the untreated control group, are given below in Table I.

[2] = test system: Nippostrongylus brasiliensis; test: Test 1: activity against roundworms in rats, treatment 6 days after infection (patent infection), worm counts 48 hours after treatment; assay type: in vivo; settings: Test 1, 1000 mg/kg oral
Procedure: Test 1 - Rats were infected with 100 Nippostrongylus brasiliensis larvae each, by the subcutaneous route. After 6 days, when the infection was patent, the rats were randomised and alloted to groups of 10 animals each, ready for treatment. One group was used for each dose level of the test compound and, in each experiment, one group was left untreated as a control. All the rats were killed for post-mortem worm counts 48 hours after treatment. The activity, expressed in terms of the percentage reduction in mean worm load of the treated group compared with the untreated group, is shown in Table I.

[3] = Test 2, 250 mg/kg intraperitoneal

Row | SMILES | worm damage ([1]; Test 2, 100 mg/kg subcutaneous) | worm damage ([1]; Test 2, 125 mg/kg intraperitoneal) | worm damage ([1]; Test 2, 1000 mg/kg oral) | worm damage [2] | worm damage [1, 3] | worm damage ([1]; Test 2, 250 mg/kg subcutaneous)
1 | CCOC(=O)NC(=S)Nc1ccccc1NC(=O)CN(C)C [1-ethoxycarbonyl-3-(2-dimethylaminoacetamidophenyl)thiourea hydrochloride] | worm damage | worm damage | worm damage | worm damage |  | 
2 | COC(=O)NC(=S)Nc1ccccc1NC(=O)CN(C)C [1-methoxycarbonyl-3-(2-dimethylaminoacetamidophenyl)thiourea hydrochloride] |  |  |  | worm damage |  | 
3 | CCOC(=O)NC(=S)Nc1ccccc1NC(=O)CN1CCCCC1 [1-ethoxycarbonyl-3-(2-piperidinoacetamidophenyl)thiourea hydrochloride] |  |  | worm damage | worm damage |  | 
4 | CCOC(=O)NC(=S)Nc1ccccc1NC(=O)CN(CC)CC [1-ethoxycarbonyl-3-(2-diethylaminoacetamidophenyl)thiourea hydrochloride] |  |  |  | worm damage | worm damage | worm damage
5 | CCOC(=O)NC(=S)Nc1cc(NC(=O)OC(C)C)ccc1NC(=O)CN(C)C [1-ethoxycarbonyl-3-(2-dimethylaminoacetamido-5-isopropoxycarbonylaminophenyl)-thiourea hydrochloride] |  |  |  | worm damage | worm damage | worm damage
6 | CCCCc1ccc(NC(=O)CN(C)C)c(NC(=S)NC(=O)OCC)c1 [1-ethoxycarbonyl-3-(5-n-butyl-2-dimethylaminoacetamidophenyl)thiourea hydrochloride] |  |  | worm damage | worm damage |  | 
7 | CCCCN(CCCC)CC(=O)Nc1ccccc1NC(=S)NC(=O)OCC [1-ethoxycarbonyl-3-(2-di-n-butylaminoacetamidophenyl)thiourea hydrochloride] |  |  | worm damage |  |  | 
